From PubChem BioAssay AID1487 (National Center for Advancing Translational Sciences (NCATS), 2009) come the findings set out here.

This is one part of the list. Shown are side measurements of this screen, not its main read-out; they come without a call. The list favours compounds with an active or inconclusive main result. Potencies come from curve fits of mixed quality, noted in brackets.

The test in a line: qHTS Assay for Modulators of Lamin A Splicing. The conditions noted are these: HeLa LMNA splicing GFP/RFP minigene ratio, 48 h. From the text: NCGC Assay Overview: Hutchinson-Gilford Progeria Syndrome (HGPS) is a pediatric premature aging disease caused by a spontaneous mutation in the lamin A/C (LMNA) gene. The mutation activates a cryptic splice site in the LMNA pre-mRNA which results in production of a pre-lamin A protein that cannot be processed properly. The mutant protein accumulates in the nucleus and negatively affects numerous cellular functions. Correction of the splicing defect in HGPS patient cells using a targeted oligonucleotide (exo11) leads to reversal of the cellular disease phenotypes. To identify small molecule modulators of aberrant LMNA splicing, a homogenous assay was constructed in HeLa cells that used a GFP containing minigene to report on correction of aberrant splicing in lamin A and a RFP (DsRed2) to report on cell viability, uniformity and nonspecific effects on the assay signal. This assay was adapted to laser-scanning microplate cytometry (Acumen, TTP Labtech) where miniaturization of the assay to a 1,536-well plate format was possible. References: Bowen, W. P.; Wylie, P. G. Application of Laser-Scanning Fluorescence Microplate Cytometry in High Content Screening. Assay Drug Dev Technol 2006;4:209-221. Scaffidi P, Misteli T. Reversal of the cellular phenotype in the premature aging disease Hutchinson-Gilford progeria syndrome. Nat.
NCGC Assay Protocol Summary: Reagents/Controls: Stable clones expressing DsRed2 and lamin A-EGFP were generated by Cell and Molecular Technologies in S3 HeLa cells. HeLa cells were prepared for the assay when they were 70-90% confluent. The cells were counted and resuspended in Opti-MEM I (no phenol red; Gibco), 2% FBS, 1% penicillin/ streptomycin (Gibco) at concentration of 120 cells/uL concentration. The suspension was passed through a Falcon basket filter with pore size 40um (Beckton Dickson). Control titrations: column […] 1536-well plate contained a sixteen point titration (1:2 dilutions) in duplicate of ancitabine (Sigma: A8598) beginning at 40 uM final concentration. Column 2 contained a sixteen point titration (1:2 dilutions) of cycloheximide beginning at 1.4 mM final concentration. Column 3 contained ancitabine at 40 uM and column 4 contained was the vehicle control (0.5% DMSO final concentration). Assay Steps: 5 uL of HeLa cells were plated in Aurora LoBase black clear bottom (cyclic-olefin polymer) 1536-well plates at a final density of 600 cells/well. Controls and library compounds were added with a 1536-well pin array using the Kalypsys pin-tool. The plates were then incubated for 48 hrs in a cell-culture incubator (37 °C; 5% CO2, 98% humidity). Following incubation the plates were read on the Acumen Explorer using the 488 nm laser. Data was collected on objects between 10 and 100 um in size. Cell objects were defined by a 15 um width x 10 um depth filter. The ratio of the total object intensity in PMT1 (500-530 nm emission; GFP) over PMT3 (575-640 nm emission; RFP) was calculated for analysis. Keywords: NIH Roadmap, MLSCN, MLI, MLSMR, qHTS, NCGC, lamin A, Progeria, RNA splicing.
On the technique in general: Quantitative high-throughput screening tests each substance at several concentrations.

Setting [1] is: measured here: RFP viability control channel.
The mark [2] stands for this setting: measured here: GFP splicing reporter channel.

The term AC50 denotes the midpoint of the concentration-response curve, whichever way the signal moves. With `N#C/C(=C\c1ccc(Br)s1)C(=O)N1CCN(c2ccccc2)CC1`, the AC50 under setting [1] is 12.6 µM [rising, single point].
As for `CC(C)c1ccccc1NC(=O)COC(=O)c1cc(=O)[nH]c(=O)[nH]1`, under setting [1], the AC50 is 0.316 µM [falling, full curve, poor fit].
Same read-out and setting: the result for `CCn1c(CNc2ccc(Cl)cc2)nnc1SCc1ccc(C)cc1` reads 35.5 µM [rising, single point].
In the case of `C/C(=N\NC(=O)c1ccccc1NC(=O)c1ccc(Cl)cc1)c1ccncc1`, the concentration at half-maximal activity (AC50) under setting [2] is 10 µM [falling, partial curve, poor fit] and the AC50 under setting [1] is 8.91 µM [falling, partial curve].
Regarding `CS(=O)(=O)Nc1ccc(C(=O)N2CCc3ccccc3C2)cc1`, under setting [2], the AC50 is 35.5 µM [rising, single point].
Take `CCc1ccc(-c2cc(C(=O)NCc3ccco3)c3ccccc3n2)s1`: under setting [2], the AC50 was 3.16 µM [rising, partial curve].
Regarding `C=CCN(CC=C)S(=O)(=O)c1ccc2nc(NC(=O)C(C)C)sc2c1`, under setting [1], the AC50 was 3.98 µM [rising, single point].
On to `O=C(CSc1c(Cl)cccc1Cl)N1CCC(c2nc3ccccc3s2)CC1`, for which the AC50 by setting is: under setting [2], 11.2 µM [falling, partial curve, poor fit]; under setting [1], 14.1 µM [falling, partial curve].
Consider `C=CCc1ccccc1OCC(O)CN1CCN(C(=O)OCC)CC1` (stereo not drawn), for which the AC50 runs as follows: under setting [2], 7.08 µM [rising, single point]; under setting [1], 5.01 µM [rising, single point].
On to `Cc1cc(Nc2cccc(Cl)c2)nc(NCc2ccccc2)n1`, for which the half-maximal activity concentration (AC50) was 12.6 µM [rising, single point] under setting [2] and 15.8 µM [rising, partial curve] under setting [1].
For the compound `CCN=C1S/C(=C\c2cc(OCC)c(O)cc2Br)C(=O)N1CC`, the AC50 was 11.2 µM [rising, partial curve, poor fit] under setting [2] and 12.6 µM [rising, partial curve] under setting [1].
For `N#Cc1cccc(-c2nc(N3CCNCC3)c3ccccc3n2)c1`, under setting [1], the AC50 was 35.5 µM [rising, single point].
As for `Clc1ccccc1-c1nc(Nc2ccncc2)c2ccccc2n1`, the AC50 under setting [2] is 17.8 µM [falling, partial curve] and the AC50 under setting [1] is 20 µM [falling, partial curve, poor fit].
For `O=C(COc1ccc(S(=O)(=O)NC2CCCCC2)cc1Cl)NCc1ccc2c(c1)OCO2`, under setting [1], the AC50 is 15.8 µM [rising, single point].
In the case of `Cc1ccc2nc(N3C(=O)CNC3=S)sc2c1`, the concentration at half-maximal activity (AC50) under setting [1] was 22.4 µM [rising, single point].
With `CCn1c(C)[n+](CC)c2ccc(C(=O)N(C)c3ccccc3)cc21`, under setting [2], the AC50 was 25.1 µM [falling, single point].
Consider `O=c1c2nccnc2[nH]c(=S)n1Cc1ccccc1`, for which the AC50 under setting [2] was 0.0708 µM [rising, full curve, poor fit].
With `Clc1ccc(CSc2nnc(-c3ccncc3)o2)c(Cl)c1`, under setting [1], the AC50 is 25.1 µM [rising, single point].
On to `COc1cccc(NC(=O)N2CCN(c3ccc(C(F)(F)F)cn3)CC2)c1`, for which the AC50 was 7.08 µM [rising, full curve] under setting [2] and 11.2 µM [rising, partial curve] under setting [1].
As to `Cc1ccc2cc(C#N)c(NCCNC(=O)C3CCC3)nc2c1C`, under setting [1], the AC50 is 35.5 µM [rising, single point].
In the case of `Oc1ccc(Nc2ncnc3scc(-c4ccccc4)c23)cc1`, the AC50 is 1.58 µM [rising, partial curve, poor fit] under setting [2] and 5.62 µM [rising, partial curve, poor fit] under setting [1].
As for `N/C(=N\OC(=O)COc1ccc2ccccc2c1)c1cccnc1`, the AC50 reads like this: under setting [2], 31.6 µM [rising, single point]; under setting [1], 31.6 µM [rising, single point].
Take `FC(F)(F)c1cccc(NC(=S)NCC2COc3ccccc3O2)c1` (stereo not drawn): the AC50 under setting [2] is 3.98 µM [rising, full curve, poor fit] and the AC50 under setting [1] is 12.6 µM [rising, partial curve].
As for `Cc1ccc(C)c(N2CCN(S(=O)(=O)c3cccc4cccnc34)CC2)c1`, under setting [2], the AC50 is 0.00794 µM [rising, full curve, poor fit].
Still for that read-out and setting: in the case of `CCC(CC)NC(=O)/C=C/c1cccc([N+](=O)[O-])c1` it was 2.82 µM [rising, partial curve, poor fit].
Regarding `Clc1ccc(Cn2ncc3c(NCc4ccccc4)ncnc32)c(Cl)c1`, the AC50 reads like this: under setting [2], 5.62 µM [rising, single point]; under setting [1], 4.47 µM [rising, single point].
Take `CCCOc1ccc(OCCSc2nnc(N)s2)cc1`: under setting [1], the AC50 was 15.8 µM [rising, single point].
As for `Cc1cc(C)nc(N/N=C/c2ccccc2)n1`, the AC50 under setting [1] is 2.51 µM [falling, partial curve, poor fit].
Still for that read-out and setting: the result for `COc1cccc(CNC(=O)c2cc3oc4ccccc4c3n2C)c1OC` reads 1.78 µM [rising, full curve]; that for `O=C(c1cccs1)N1CCN(Cc2cccc([N+](=O)[O-])c2)CC1`, 10 µM [rising, partial curve, poor fit]; that for `O=C(/C=C/c1cccs1)Nc1ccc(N2CCOCC2)c(S(=O)(=O)Nc2ccccc2Cl)c1`, 8.91 µM [rising, partial curve].
Turning to `O=C(Nc1ccc(N2CCCCC2)c(Cl)c1)c1cccnc1`, the AC50 under setting [1] is 15.8 µM [rising, partial curve].
As to `Cc1ccc(N(C)C(=O)C2CCN(S(=O)(=O)c3c(C)noc3/C=C/c3c(C)cc(C)cc3C)CC2)cc1`, the AC50 by setting is: under setting [2], 31.6 µM [rising, single point]; under setting [1], 14.1 µM [rising, single point].
Consider `CC(=O)c1cnc(SCc2ccc(Cl)cc2)nc1C`, for which the AC50 by setting is: under setting [2], 0.355 µM [falling, full curve, poor fit]; under setting [1], 0.355 µM [falling, full curve, poor fit].
Consider `COc1cccc(NC2C=CS(=O)(=O)C2)c1` (stereo not drawn), for which the AC50 under setting [1] is 12.6 µM [rising, single point].
For `Cn1c(CCN2CCCCC2)nc2cc([N+](=O)[O-])ccc21`, the AC50 under setting [2] is 12.6 µM [falling, partial curve].
On to `COc1cccc(NC(=O)C2=C(C)C(=O)OC23CCN(C(C)=O)CC3)c1`, for which the half-maximal activity concentration (AC50) under setting [1] is 0.708 µM [falling, full curve].
`O=C(Nc1ncc(Cc2cccc(Cl)c2Cl)s1)C1CCCO1` (stereo not drawn): the half-maximal activity concentration (AC50) under setting [2] is 6.31 µM [rising, single point].
`O=C(c1cc(-c2ccco2)on1)N1CCN(C(c2ccccc2)c2ccccc2)CC1`: under setting [1], the AC50 was 12.6 µM [rising, partial curve].
For `O=C(Nc1ccc(SC(F)(F)F)cc1)c1ccccn1`, the AC50 under setting [2] is 0.126 µM [falling, full curve].
On to `Cc1cc2cc(CN(Cc3cccs3)C(=S)NCC3CCCO3)c(=O)[nH]c2cc1C` (stereo not drawn), for which the AC50 under setting [2] is 17.8 µM [rising, single point] and the AC50 under setting [1] was 35.5 µM [rising, single point].
`Cc1ccc(OCCCCn2cnc3ccccc32)c(C)c1`: the half-maximal activity concentration (AC50) under setting [1] was 10 µM [rising, partial curve].
In the case of `CC(/C=N/NC(=O)c1cc(-c2ccc(C)s2)[nH]n1)=C\c1ccccc1`, under setting [1], the AC50 was 3.98 µM [rising, partial curve].
In the case of `Cc1ccc2nc(-c3sc4nc(C)ccc4c3N)[nH]c2c1`, the AC50 under setting [1] was 3.55 µM [rising, partial curve, poor fit].
On to `CCN(Cc1ccccc1)S(=O)(=O)c1cc(C(=O)NC2CCCCCC2)ccc1OC`, for which the AC50 is 6.31 µM [rising, partial curve, poor fit] under setting [2] and 25.1 µM [rising, partial curve] under setting [1].
Take `COc1ccc(-c2c3c(=O)n(C)c(=O)n(C)c3cn2C2CCCCC2)cc1`: under setting [2], the AC50 was 31.6 µM [rising, single point].
As for `CCOC(=O)c1cccc(Nc2cc(-c3ccccc3)ncn2)c1`, the AC50 is 35.5 µM [falling, partial curve, poor fit] under setting [2] and 3.98 µM [falling, partial curve, poor fit] under setting [1].
In the case of `CC(=O)Nc1ccc(S(=O)(=O)NCCSCc2cccc(Cl)c2)cc1`, under setting [1], the AC50 is 15.8 µM [rising, partial curve].
On to `Cc1nc(-c2ccccc2)sc1CCNC(=O)C(=O)Nc1ccc2c(c1)OCO2`, for which the AC50 is 14.1 µM [falling, single point] under setting [2] and 11.2 µM [falling, partial curve] under setting [1].
Consider `O=C(CC(Cc1ccccc1)C(=O)O)NCCc1ccc2c(c1)OCO2` (stereo not drawn), for which the AC50 under setting [1] is 8.91 µM [rising, partial curve, poor fit].
On to `COCCCNC(=O)c1ccc(-n2nc(C(F)(F)F)cc2-c2cccs2)cc1`, for which the AC50 under setting [1] was 17.8 µM [rising, single point].
For the compound `COc1ccc(-c2nc3ccc(NS(=O)(=O)c4ccccc4)cc3o2)cc1`, the AC50 under setting [2] was 35.5 µM [rising, single point] and the AC50 under setting [1] was 31.6 µM [rising, single point].
`CSc1ncc(OCc2ccccc2)c(=O)[nH]1`: the AC50 reads like this: under setting [2], 0.141 µM [falling, full curve]; under setting [1], 0.0447 µM [falling, full curve, poor fit].
For `O=C(O)C1CCN(c2ccc(Cl)nn2)CC1`, the AC50 is 7.08 µM [falling, partial curve] under setting [2] and 8.91 µM [falling, full curve, poor fit] under setting [1].
With `Nc1c(C(=O)NCc2ccc3c(c2)OCO3)c2nc3ccccc3nc2n1CCCN1CCOCC1`, the AC50 by setting is: under setting [2], 20 µM [falling, partial curve]; under setting [1], 31.6 µM [falling, partial curve].
In the case of `O=C(c1ccc(S(=O)(=O)NCC2CCCO2)cc1)N1CCc2ccccc21` (stereo not drawn), the AC50 was 7.94 µM [rising, partial curve] under setting [2] and 11.2 µM [rising, partial curve] under setting [1].
